Results deposited as PubChem BioAssay AID720505 (Drosophila RNAi Screening Center, 2013).

Assay: 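Genes needed for store-operated calcium entry in fly cells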 (primary screen)
System: Drosophila S2R+ cells
Knock-down reagent: long dsRNA against Drosophila genes
Treatment: thapsigargin (2 µM) in calcium-free buffer to empty internal stores, then 2 mM calcium added back
Measurement: 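Fluo-4 signal in 384-well plates read on a FLIPR after thapsigargin (2 µM, calcium-free) store depletion and 2 mM calcium add-back; unnormalised mean endpoint per well; screen run twice, selected wells retested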
Scale: calcium signal and retest calcium signal: higher = more calcium entry after store depletion
Call rule: 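About 1500 genes called as lowering calcium entry, by varying amounts, judged against per-plate control wells with STIM1 as positive and Rho1 as negative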
Calls: active = called as lowering calcium entry; inactive = not called
In all, the deposit lists about 20,000 reagents; shown is an unselected part of those that have a named target and a result. In the full data, about 2,100 (10%) are marked active. 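Raw plate signals without normalisation; calls rest on control-based scores that were not deposited; replicate 2 separates called from uncalled poorly.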 Names joined by + are all predicted targets of the reagent. Reagent sequences are not shown. Not given: the amount of reagent, the time to read-out.

| target gene | amplicon | calcium signal, replicate 1 | calcium signal, replicate 2 | retest calcium signal, replicate 1 | retest calcium signal, replicate 2 | outcome |
| --- | --- | --- | --- | --- | --- | --- |
| CG1677 | DRSC18116 | 245 | 104 | – | – | inactive |
| aub | DRSC03486 | 77.2 | 135 | – | – | inactive |
| CG11537 | DRSC08200 | 69.9 | 124 | – | – | active |
| beat-Vb | DRSC14844 | 84.5 | 164 | – | – | inactive |
| beat-Vb | DRSC14845 | 42 | 157 | – | – | active |
| CG15225 | DRSC04232 | 167 | 101 | – | – | inactive |
| CG15225 | DRSC23269 | 90.9 | 145 | – | – | inactive |
| Gdi | DRSC03330 | 71.2 | 106 | – | – | inactive |
| ETHR | DRSC15915 | 148 | 106 | – | – | inactive |
| Bcat | DRSC19756 | 105 | 121 | – | – | inactive |
| CG32523 | DRSC20510 | 217 | 89.7 | – | – | inactive |
| hubl | DRSC06825 | 121 | 130 | – | – | inactive |
| CG12128 + CG1407 | DRSC06446 | 196 | 135 | – | – | inactive |
| CG42299 + CG42300 | DRSC19680 | 91.9 | 124 | – | – | inactive |
| CG42299 + CG42300 | DRSC19815 | 85.4 | 121 | – | – | inactive |
| CG12253 | DRSC02153 | 74.1 | 106 | – | – | inactive |
| mag | DRSC11787 | 137 | 132 | – | – | inactive |
| E(spl)m5-HLH | DRSC16695 | 244 | 90.9 | – | – | inactive |
| RecQ5 | DRSC11266 | 95.7 | 89.4 | – | – | inactive |
| CG13058 | DRSC09941 | 90.3 | 172 | – | – | inactive |
| CG10011 | DRSC14174 | 111 | 145 | – | – | inactive |
| c(3)G | DRSC15245 | 113 | 196 | – | – | inactive |
| CG42360 | DRSC04224 | 135 | 174 | – | – | inactive |
| CG8249 | DRSC07125 | 128 | 114 | – | – | inactive |
| Prosalpha7 | DRSC07516 | 128 | 112 | – | – | active |
| Nlp | DRSC16759 | 103 | 149 | – | – | inactive |
| CG5953 | DRSC01546 | 70.5 | 127 | – | – | active |
| CG5953 | DRSC02914 | 100 | 99 | – | – | inactive |
| CG15725 | DRSC19691 | 94.2 | 101 | – | – | inactive |
| mRpL37 | DRSC16062 | 116 | 98.8 | – | – | inactive |
| Mbs | DRSC10525 | 118 | 74.2 | – | – | inactive |
| Mbs | DRSC10553 | 111 | 160 | 94.8 | 95.3 | inactive |
| Np | DRSC06089 | 120 | 145 | – | – | inactive |
| Np | DRSC07094 | 115 | 93.2 | – | – | inactive |
| Np | DRSC22421 | 101 | 160 | – | – | inactive |
| CG18336 | DRSC06334 | 106 | 169 | – | – | inactive |
| Amnionless | DRSC00317 | 159 | 147 | – | – | inactive |
| Ugt316A1 | DRSC10376 | 83.1 | 168 | – | – | inactive |
| tzn | DRSC11755 | 93.3 | 80.7 | – | – | inactive |
| betaCOP | DRSC20312 | 123 | 115 | – | – | inactive |
| fzy | DRSC03534 | 48.3 | 36.3 | – | – | active |
| Gagr | DRSC10441 | 138 | 80.7 | – | – | inactive |
| CG4570 | DRSC15602 | 180 | 82.3 | – | – | inactive |
| PNKP | DRSC16512 | 123 | 93.2 | – | – | inactive |
| velo | DRSC09698 | 103 | 119 | – | – | inactive |
| CG7744 | DRSC07036 | 162 | 131 | – | – | inactive |
| CG1971 | DRSC15406 | 77.5 | 115 | – | – | active |
| Asap | DRSC06493 | 131 | 119 | – | – | inactive |
| Asap | DRSC06830 | 216 | 161 | – | – | inactive |
| Polr2C | DRSC03415 | 51.2 | 75.4 | – | – | active |

Reformatted: results already given
CG11537 [DRSC08200]
- calcium signal, replicate 1: 69.9
- calcium signal, replicate 2: 124
- outcome: active

beat-Vb [DRSC14844]
- calcium signal, replicate 1: 84.5
- calcium signal, replicate 2: 164
- outcome: inactive

beat-Vb [DRSC14845]
- calcium signal, replicate 1: 42
- calcium signal, replicate 2: 157
- outcome: active

CG15225 [DRSC04232]
- calcium signal, replicate 1: 167
- calcium signal, replicate 2: 101
- outcome: inactive

CG15225 [DRSC23269]
- calcium signal, replicate 1: 90.9
- calcium signal, replicate 2: 145
- outcome: inactive

Gdi [DRSC03330]
- calcium signal, replicate 1: 71.2
- calcium signal, replicate 2: 106
- outcome: inactive

ETHR [DRSC15915]
- calcium signal, replicate 1: 148
- calcium signal, replicate 2: 106
- outcome: inactive

Bcat [DRSC19756]
- calcium signal, replicate 1: 105
- calcium signal, replicate 2: 121
- outcome: inactive

CG32523 [DRSC20510]
- calcium signal, replicate 1: 217
- calcium signal, replicate 2: 89.7
- outcome: inactive

hubl [DRSC06825]
- calcium signal, replicate 1: 121
- calcium signal, replicate 2: 130
- outcome: inactive

CG12128 + CG1407 [DRSC06446]
- calcium signal, replicate 1: 196
- calcium signal, replicate 2: 135
- outcome: inactive

Further results follow:
| target gene | amplicon | calcium signal, replicate 1 | calcium signal, replicate 2 | retest calcium signal, replicate 1 | retest calcium signal, replicate 2 | outcome |
| --- | --- | --- | --- | --- | --- | --- |
| CG9485 | DRSC04557 | 181 | 82.3 | – | – | inactive |
| otk | DRSC07658 | 111 | 175 | – | – | inactive |
| CG14341 | DRSC00371 | 134 | 126 | – | – | inactive |
| CG12862 | DRSC06202 | 103 | 173 | – | – | inactive |
| CG8343 | DRSC04905 | 177 | 85.4 | – | – | inactive |
| Psc | DRSC07518 | 112 | 103 | – | – | inactive |
| CG5116 | DRSC15720 | 92.7 | 129 | – | – | inactive |
| PIG-O | DRSC06123 | 119 | 88.9 | – | – | inactive |
| CG33969 | DRSC11777 | 79.2 | 132 | – | – | inactive |
| mRpL54 | DRSC04545 | 146 | 85 | – | – | inactive |
| ltl | DRSC10206 | 125 | 111 | – | – | inactive |
| ltl | DRSC10870 | 131 | 103 | – | – | inactive |
| tctn + B9d2 | DRSC03160 | 148 | 110 | – | – | inactive |
| CG15109 | DRSC06536 | 119 | 132 | – | – | inactive |
| Sgs5 | DRSC16862 | 146 | 161 | – | – | inactive |
| ninaE | DRSC17014 | 160 | 178 | – | – | inactive |
| sqz | DRSC16980 | 93.4 | 108 | – | – | active |
| CG8401 | DRSC07165 | 194 | 171 | – | – | inactive |
| phtf | DRSC05023 | 135 | 127 | – | – | inactive |
| Mcm5 | DRSC16735 | 152 | 106 | – | – | inactive |
| bsk | DRSC03499 | 101 | 101 | – | – | inactive |
| Sfp38D | DRSC01810 | 85.5 | 6983 | – | – | inactive |
| CG1603 | DRSC06602 | 69.3 | 206 | – | – | active |
| CG31560 | DRSC12136 | 109 | 88.2 | – | – | inactive |
| CG1146 | DRSC08189 | 144 | 94.3 | – | – | inactive |
| Zfrp8 | DRSC04352 | 96.8 | 145 | – | – | inactive |
| CG3323 | DRSC18303 | 58.8 | 267 | – | – | active |
| Mrgn1 | DRSC20223 | 187 | 133 | – | – | inactive |
| CG5381 | DRSC02852 | 212 | 147 | – | – | inactive |
| tgy | DRSC20045 | 141 | 139 | – | – | inactive |
| CG13311 | DRSC09982 | 98.2 | 69.1 | – | – | inactive |
| CG18258 | DRSC19798 | 94.2 | 127 | – | – | inactive |
| Skel | DRSC14905 | 168 | 96.1 | – | – | inactive |
| Skel | DRSC14906 | 97.3 | 136 | – | – | inactive |
